Measured values taken from publication PMC12040169 (PLOS Biology, 2025).
This is one part of the list.

Tested on: T1, CTL2-GFP (C. trachomatis L2/434/Bu, GFP-expressing)
T1 construct: L2/434/Bu, GFP-expressing
Design: species or system HeLa; Intracellular C. trachomatis growth in HeLa cells, bulk GFP fluorescence relative to DMSO
Conditions: bulk GFP, single well; 28.5 h, 10 µM; inhibitor

| Compound | % of control remaining |
| --- | --- |
| CCCc1[nH]nc(O)c1Cc1ccc(C(C)C)cc1 [CBK075033] | 76.9161% |
| CCC(NC(=O)CCc1cc2n(n1)CCNC2)c1cn2cccnc2n1 (stereo not drawn) [CBK307090] | 123.606% |
| N#Cc1ccccc1NC(=O)C(CC(=O)O)NCc1ccccc1 (stereo not drawn) [CBK286907] | 164.417% |
| CCN(CCO)C(=O)NC1CCCc2c1cnn2Cc1ccccc1 (stereo not drawn) [CBK305277] | 108.192% |
| CC1CN(C(=O)c2ccccc2-c2ccccc2C(=O)O)CC(C)O1 (stereo not drawn) [CBK286577] | 111.707% |
| O=[N+]([O-])c1cc(-c2nnc(-c3ccccc3)o2)ccc1-n1c(-c2ccccc2)nnc1-c1ccccc1 [CBK267341] | 141.363% |
| COc1ccc(/C(C)=N\NC(=O)c2cccc(Br)c2)cc1 [CBK261612] | 96.3147% |
| CC(NC(=O)c1cnc(-c2cccc(C(F)(F)F)c2)c(-c2ccncc2)c1)c1ccc(F)cc1 (stereo not drawn) [CBK037556] | 208.146% |
| O=C(Cc1ccc(Br)cc1)N1CCC(Cc2ccccc2)CC1 [CBK058493] | 106.753% |
| Cc1ccc(C)c(CC(=O)N(C)C2CCN(C3CCOCC3)CC2)c1 [CBK304964] | 148.074% |
| O=C1CC(c2noc(-c3ccncc3)n2)CN1c1ccccc1 (stereo not drawn) [CBK288043] | 127.383% |
| C/C(=N\NC(=O)C1CC1)c1ccc(C)cc1 [CBK016047] | 127.136% |
| O=C(CN(c1ccccc1F)S(=O)(=O)c1ccccc1)Nc1ccccc1C(=O)O [CBK263999] | 103.221% |
| Clc1ccc(CN2CCC(Oc3cncc(OCc4cccnc4)n3)C2)cc1 (stereo not drawn) [CBK084451] | 92.7973% |
| O=C(NCC(O)COc1ccccc1)c1cnn2c(-c3ccccc3)ccnc12 (stereo not drawn) [CBK298320] | 130.889% |
| COc1cc2c(cc1NC(=O)C/C(C)=N/NC(=O)c1ccoc1C)oc1ccccc12 [CBK262953] | 87.7063% |
| O=C(O)C1CCCN(C(=O)NCCOc2ccccc2)C1 (stereo not drawn) [CBK161366] | 118.31% |
| O=C(CC1Nc2ccccc2NC1=O)Nc1cccc(C(=O)O)c1 (stereo not drawn) [CBK263155] | 107.938% |
| CC(Oc1ccc(Cl)cc1)C(=O)Nc1ncccn1 (stereo not drawn) [CBK288206] | 111.118% |
| NS(=O)(=O)c1ccc(CCNC(=O)c2ccc3c(c2)OCCO3)cc1 [CBK268128] | 99.6143% |
| COC(=O)c1sc2ncccc2c1NS(=O)(=O)c1ccc(C(F)(F)F)cc1[N+](=O)[O-] [CBK049969] | 101.121% |
| Cc1nc2c(c(=O)c3ccccc3n2C)c(=O)n1Cc1ccco1 [CBK287776] | 107.144% |
| O=C(Cc1ccccc1F)NCCn1nc2c(cc1=O)CCCCC2 [CBK284519] | 80.3647% |
| NC(=O)COc1ccc(CNC(=O)CN2CCc3ccccc32)cc1 [CBK306330] | 135.621% |
| Cc1nc(C(F)(F)F)ccc1C(=O)N(C)CCN1CCCCC1 [CBK281917] | 149.457% |
| CCc1n[nH]c(C(=O)N2CCc3ncc(Cl)cc3C2)c1C [CBK284856] | 91.2065% |

Some of these compounds in order of number of heavy atoms, descending.

| Compound | % of control remaining |
| --- | --- |
| O=C(CN(c1ccccc1F)S(=O)(=O)c1ccccc1)Nc1ccccc1C(=O)O [CBK263999] | 103.221% |
| O=C(NCC(O)COc1ccccc1)c1cnn2c(-c3ccccc3)ccnc12 (stereo not drawn) [CBK298320] | 130.889% |
| C/C(=N\NC(=O)C1CC1)c1ccc(C)cc1 [CBK016047] | 127.136% |

More records.

| Compound | % of control remaining |
| --- | --- |
| CCC(CO)Nc1nc(-c2ccc(O)cc2)cn2ccnc12 (stereo not drawn) [CBK037471] | 107.633% |
| CCc1cc(OCCCSc2nc(C)cc(O)n2)ccc1Cl [CBK267364] | 117.567% |
| O=C(CSCc1nc2ccccc2[nH]1)Nc1cccc(C(F)(F)F)c1 [CBK268474] | 102.244% |
| CCOc1ccc(-c2cncc(Nc3cccc(C(F)(F)F)c3)n2)cc1 [CBK065798] | 204.641% |
| COc1ccc(C(=O)CCN(C)CC(=O)O)cc1 [CBK287227] | 133.021% |
| CN(C)c1nc(-c2ccc3c(c2)CCCN3S(C)(=O)=O)cs1 [CBK305016] | 109.395% |
| COc1ccc(OC)c(NC(=O)CNC(=O)c2ccc(C)cc2)c1 [CBK268881] | 105.744% |
| CC1Cc2cc(C(O)CN3CCCC3)ccc2N1C(=O)C1CC1 (stereo not drawn) [CBK286440] | 129.405% |
| Cc1ccc(S(=O)(=O)c2cccc(S(=O)(=O)N3CCCCC3)c2)cc1S(=O)(=O)N1CCCCC1 [CBK262207] | 91.025% |
| Cc1cccnc1NC(=O)c1ccc(NC(C)C)c([N+](=O)[O-])c1 [CBK269494] | 130.355% |
| CS(=O)(=O)N1CCC2(CC1)Cn1c(cc3ccccc31)C(=O)O2 [CBK282820] | 119.39% |
| S=C(Nc1ccccc1)Nc1nc2ccccc2n1CCOc1ccccc1 [CBK265487] | 98.9311% |
| O=c1oc2cc(S(=O)(=O)NCc3ccco3)ccc2c2ccc(S(=O)(=O)NCc3ccco3)cc12 [CBK267177] | 139.944% |
| Nc1ncc(-c2ccco2)nc1-c1ccc(C(=O)NCCO)cc1 [CBK064124] | 183.013% |
| CCOC(=O)c1c(-c2ccc(OC)cc2)noc1C(=O)c1ccccc1 [CBK002295] | 93.398% |
| Cc1cccc(-c2nnc(-c3ccc(NC(=O)CSCc4ccccc4)cc3)o2)c1 [CBK266775] | 116.193% |
| C1=CCC(CN2CCN(C3CCN(Cc4ccccc4)CC3)CC2)CC1 (stereo not drawn) [CBK263469] | 90.939% |
| O=C(CCn1c(C(F)F)cc2cccnc21)NC1CCCCC1 [CBK285064] | 120.935% |
| CCc1nn2c(=O)cc(CNc3ccc4c(c3)OCCO4)nc2s1 [CBK297787] | 90.0791% |
| CC(C)(C)S(=O)(=O)Nc1nccnc1-c1cccs1 [CBK050765] | 87.105% |
| O=C(CCc1cccnc1)NC1CCCC1 [CBK200239] | 116.173% |
| CC(C)c1nnc(C2(c3ccc(Br)cc3)CCOCC2)o1 [CBK306230] | 133.822% |
| COc1cccc(C2C(C(=O)c3ccc(Br)cc3)=C(O)C(=O)N2CCCN(C)C)c1 (stereo not drawn) [CBK264921] | 100% |
| COc1ccc(C(C)C)cc1-c1cnc2[nH]c(=O)n(C3CC3)c2n1 [CBK064915] | 182.098% |
| CCN(CC)C(=O)Cn1nc2c(C)cc3cc(C)ccc3n2c1=O [CBK283871] | 140.032% |
